The target of this assay is ciliogenesis transcription factor FOXJ1 (human) (UniProt Q92949). The experiment in a line: affinity purification with mass spectrometry; SF-TAP of tagged baits overexpressed in HEK293T (Strep-Tactin, then anti-FLAG M2 agarose, FLAG peptide elution; lysis 0.5% NP-40 in TBS, 4 °C); LC-MS/MS; interactions scored by socioaffinity (spoke and matrix evidence), FDR/FPR≤0.1.

Sequences of proteins named here, by UniProt entry; tags and fusion partners are left off.
UniProt Q92949: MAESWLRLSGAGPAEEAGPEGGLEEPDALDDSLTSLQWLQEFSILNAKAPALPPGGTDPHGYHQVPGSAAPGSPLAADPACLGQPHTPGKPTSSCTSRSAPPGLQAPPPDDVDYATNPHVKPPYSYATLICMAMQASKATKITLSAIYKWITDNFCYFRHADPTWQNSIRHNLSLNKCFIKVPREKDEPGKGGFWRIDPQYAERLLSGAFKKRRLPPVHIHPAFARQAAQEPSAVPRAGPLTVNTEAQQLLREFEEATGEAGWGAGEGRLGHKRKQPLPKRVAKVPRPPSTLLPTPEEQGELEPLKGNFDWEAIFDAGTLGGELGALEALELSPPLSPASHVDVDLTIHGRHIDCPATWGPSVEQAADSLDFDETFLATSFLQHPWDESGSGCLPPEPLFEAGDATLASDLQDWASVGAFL

No constants are given. Whether binding was seen depends on the method and setting. In cells and extracts the contact can be indirect. Here binding means that the protein was enriched with, or labelled near, the bait; the list need not be complete. Sequences can lack the tags named with a protein.

The results in this text go back to paper PMC4869170.

B1: cilia- and flagella-associated protein 20 (protein, UniProt Q9Y6A4 1-193)
chain: MFKNTFQSGFLSILYSIGSKPLQIWDKKVRNGHIKRITDNDIQSLVLEIEGTNVSTTYITCPADPKKTLGIKLPFLVMIIKNLKKYFTFEVQVLDDKNVRRRFRASNYQSTTRVKPFICTMPMRLDDGWNQIQFNLLDFTRRAYGTNYIETLRVQIHANCRIRRVYFSDRLYSEDELPAEFKLYLPVQNKAKQ
In the case of B1, the binding result is “binds”.
